Test [1] deals with human ENPP1 on the cell surface (293T-ENPP1 cells, HepG2 cells) (human) (UniProt P22413). Briefly: flow cytometry on 293T-ENPP1 and HepG2 cells, APC anti-FLAG. Background: A flow cytometer gives signals particle by particle.
For test [2] the target is unchanged. Description: flow cytometry on 293T-ENPP1 cells, 100 nM IgG1, PE anti-human IgG.
The target is the same in test [3]. Description: flow cytometry, 100 nM antibody, PE goat anti-human IgG second step, 293T-ENPP1 and HepG2 cells.

Chains of the proteins cited; added tags and fusions are not shown. Lines headed by an entry give the natural chain unless they say otherwise; changes in a name come on top.
UniProt P22413: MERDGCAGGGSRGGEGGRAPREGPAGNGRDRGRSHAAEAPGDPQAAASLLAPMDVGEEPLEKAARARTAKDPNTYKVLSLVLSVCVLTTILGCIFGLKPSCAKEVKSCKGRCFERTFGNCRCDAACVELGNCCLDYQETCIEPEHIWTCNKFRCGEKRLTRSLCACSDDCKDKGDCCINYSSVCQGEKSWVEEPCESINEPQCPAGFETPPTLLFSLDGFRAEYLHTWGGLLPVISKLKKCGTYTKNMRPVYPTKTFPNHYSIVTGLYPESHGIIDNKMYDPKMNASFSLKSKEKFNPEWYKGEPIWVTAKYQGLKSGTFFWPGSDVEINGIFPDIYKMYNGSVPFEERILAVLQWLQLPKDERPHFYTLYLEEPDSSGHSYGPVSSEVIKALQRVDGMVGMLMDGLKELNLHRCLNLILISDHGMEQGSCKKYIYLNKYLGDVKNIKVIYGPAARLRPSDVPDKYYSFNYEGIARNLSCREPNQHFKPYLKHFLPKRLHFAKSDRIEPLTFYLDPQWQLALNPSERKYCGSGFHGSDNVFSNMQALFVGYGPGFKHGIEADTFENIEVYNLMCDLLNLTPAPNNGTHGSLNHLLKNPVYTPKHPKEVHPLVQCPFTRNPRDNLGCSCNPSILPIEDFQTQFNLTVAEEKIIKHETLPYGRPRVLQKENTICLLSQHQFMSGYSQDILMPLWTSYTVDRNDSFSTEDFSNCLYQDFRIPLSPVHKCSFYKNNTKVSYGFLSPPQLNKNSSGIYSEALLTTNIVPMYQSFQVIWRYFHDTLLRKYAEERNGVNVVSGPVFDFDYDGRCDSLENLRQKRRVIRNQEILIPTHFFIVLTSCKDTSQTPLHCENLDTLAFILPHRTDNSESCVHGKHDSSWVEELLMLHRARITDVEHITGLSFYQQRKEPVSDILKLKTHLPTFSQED

The text below walks through data of US20250177530A1, “MOLECULES THAT BIND TO ENPP1 POLYPEPTIDES” (UNIVERSITY OF PITTSBURGH - OF THE COMMONWEALTH SYSTEM OF …, priority 2022, published 2025).

These are yes or no findings as the source states them, for the method shown. Some binding calls cover weakened binding; strength is not graded here.

B1: scFv 17 (scFv, not shown: small tags and cut ends)
scFv: DIQMTQSPSSLSASVGDRVTITCRASQSISSYLNWYQQKPGKAPKLLIYAASSLQSGVPSRFSGSGSGTDFTLTISSLQPEDAATYYCQQYDTFPLTFGGGTKVEIKGGGGSGGGGSGGGGSQVQLVESGGGLVKPGGSLRLSCAASGFTFSDYYMSWIRQAPGKGLEWVSYISSSGSTIYYADSVKGRFTISRDNAKNSLYLQMNSLRAEDTAVYYCAREVYYYDSSGYYTYYFDYWGQGTLVTVSS
For the molecule B1, the binding entry in test [1] is “binds”.

B2: scFv 3G12 (scFv, not shown: small tags and cut ends)
scFv: DIQMTQSPSSLSASVGDRVTITCRASQSISSYLNWYQQKPGKAPKLLIYAASSLQSGVPSRFSGSGSGTDFTLTISSLQPEDVAVYYCQQYYTSRITFGQGTKLEIKGGGGSGGGGSGGGGSQVQLVESGGGLVKPGGSLRLSCAASGFTFSDYYMSWIRQAPGKGLEWVSYISSSGSTIYYADSVKGRFTISRDNAKNSLYLQMNSLRAEDTAVYYCAREVYYYDSSGYYTYYFDYWGQGTLVTVSS
Consider B2, for which, in test [1], the binding result is “binds”.

B3: IgG1 17 (antibody, V domains shown)
VH: QVQLVESGGGLVKPGGSLRLSCAASGFTFSDYYMSWIRQAPGKGLEWVSYISSSGSTIYYADSVKGRFTISRDNAKNSLYLQMNSLRAEDTAVYYCAREVYYYDSSGYYTYYFDYWGQGTLVTVSS
VL: DIQMTQSPSSLSASVGDRVTITCRASQSISSYLNWYQQKPGKAPKLLIYAASSLQSGVPSRFSGSGSGTDFTLTISSLQPEDAATYYCQQYDTFPLTFGGGTKVEIKR
In the case of B3, the binding result in test [2] and in test [3] was “binds” in each case.

B4: IgG1 3G12 (antibody, V domains shown)
VH: QVQLVESGGGLVKPGGSLRLSCAASGFTFSDYYMSWIRQAPGKGLEWVSYISSSGSTIYYADSVKGRFTISRDNAKNSLYLQMNSLRAEDTAVYYCAREVYYYDSSGYYTYYFDYWGQGTLVTVSS
VL: DIQMTQSPSSLSASVGDRVTITCRASQSISSYLNWYQQKPGKAPKLLIYAASSLQSGVPSRFSGSGSGTDFTLTISSLQPEDVAVYYCQQYYTSRITFGQGTKLEIKR
In the case of B4, the binding result in test [2] and in test [3] was “binds” each time.
